Source: the supplement of paper PMC10849652
The other results are listed elsewhere or left out.

Protein sequences, listed by entry. Tags and fused reporters are not part of them. Lines headed by an entry give the natural chain unless they say otherwise; changes in a name come on top.
UniProt P11142, whole entry, looked up: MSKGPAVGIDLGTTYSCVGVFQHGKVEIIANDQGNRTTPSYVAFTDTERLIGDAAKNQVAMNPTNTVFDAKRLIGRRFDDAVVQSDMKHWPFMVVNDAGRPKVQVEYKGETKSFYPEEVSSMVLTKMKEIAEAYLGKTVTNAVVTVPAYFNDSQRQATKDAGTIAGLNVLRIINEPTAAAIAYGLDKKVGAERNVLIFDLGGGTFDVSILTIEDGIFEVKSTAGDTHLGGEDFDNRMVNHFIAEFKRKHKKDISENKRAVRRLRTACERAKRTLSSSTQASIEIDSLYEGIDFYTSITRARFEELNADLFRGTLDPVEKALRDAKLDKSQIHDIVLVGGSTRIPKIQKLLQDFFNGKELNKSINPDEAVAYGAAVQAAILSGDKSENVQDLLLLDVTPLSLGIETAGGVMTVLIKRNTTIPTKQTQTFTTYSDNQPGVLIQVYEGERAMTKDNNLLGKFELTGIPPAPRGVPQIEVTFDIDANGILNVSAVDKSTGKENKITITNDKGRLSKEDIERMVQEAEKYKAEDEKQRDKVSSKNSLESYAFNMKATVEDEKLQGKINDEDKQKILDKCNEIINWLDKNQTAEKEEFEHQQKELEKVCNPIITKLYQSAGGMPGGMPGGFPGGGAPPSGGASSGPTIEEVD
UniProt Q96CB8, whole entry, looked up: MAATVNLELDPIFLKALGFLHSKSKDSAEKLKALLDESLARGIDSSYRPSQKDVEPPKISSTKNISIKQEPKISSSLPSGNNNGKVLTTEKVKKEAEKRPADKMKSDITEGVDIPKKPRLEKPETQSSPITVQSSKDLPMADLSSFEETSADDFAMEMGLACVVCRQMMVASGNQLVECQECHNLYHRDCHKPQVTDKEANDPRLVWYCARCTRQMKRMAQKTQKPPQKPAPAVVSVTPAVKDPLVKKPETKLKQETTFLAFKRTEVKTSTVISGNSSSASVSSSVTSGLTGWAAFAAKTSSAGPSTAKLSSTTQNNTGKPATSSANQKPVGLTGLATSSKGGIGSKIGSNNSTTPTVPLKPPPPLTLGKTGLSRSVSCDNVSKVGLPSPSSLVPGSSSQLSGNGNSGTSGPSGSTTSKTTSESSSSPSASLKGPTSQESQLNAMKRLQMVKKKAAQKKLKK
UniProt Q5TA45, whole entry, looked up: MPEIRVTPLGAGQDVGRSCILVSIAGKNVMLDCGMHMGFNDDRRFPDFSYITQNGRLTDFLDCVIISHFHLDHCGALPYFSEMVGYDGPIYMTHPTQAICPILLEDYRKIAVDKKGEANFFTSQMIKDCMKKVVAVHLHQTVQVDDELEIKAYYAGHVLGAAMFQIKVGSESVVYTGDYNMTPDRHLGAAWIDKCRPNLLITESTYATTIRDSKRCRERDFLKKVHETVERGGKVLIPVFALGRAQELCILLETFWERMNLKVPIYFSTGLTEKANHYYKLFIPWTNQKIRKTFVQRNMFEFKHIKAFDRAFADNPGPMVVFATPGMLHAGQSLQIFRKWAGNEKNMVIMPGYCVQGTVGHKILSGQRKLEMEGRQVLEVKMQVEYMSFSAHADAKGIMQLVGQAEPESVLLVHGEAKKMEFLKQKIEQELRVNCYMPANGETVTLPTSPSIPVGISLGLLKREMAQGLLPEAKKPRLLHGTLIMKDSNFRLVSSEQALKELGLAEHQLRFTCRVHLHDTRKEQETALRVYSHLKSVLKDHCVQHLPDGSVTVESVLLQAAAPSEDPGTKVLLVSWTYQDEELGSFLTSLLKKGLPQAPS
UniProt P50213: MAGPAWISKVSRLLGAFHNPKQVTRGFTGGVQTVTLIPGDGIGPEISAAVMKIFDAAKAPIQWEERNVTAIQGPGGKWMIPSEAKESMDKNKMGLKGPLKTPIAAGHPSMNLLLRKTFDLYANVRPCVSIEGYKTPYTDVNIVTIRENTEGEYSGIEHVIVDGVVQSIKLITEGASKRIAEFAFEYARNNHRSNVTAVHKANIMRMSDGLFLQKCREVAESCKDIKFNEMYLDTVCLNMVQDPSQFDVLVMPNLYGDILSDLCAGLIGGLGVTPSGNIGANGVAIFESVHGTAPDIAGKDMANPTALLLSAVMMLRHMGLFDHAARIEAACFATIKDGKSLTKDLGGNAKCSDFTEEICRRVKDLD
UniProt Q13422: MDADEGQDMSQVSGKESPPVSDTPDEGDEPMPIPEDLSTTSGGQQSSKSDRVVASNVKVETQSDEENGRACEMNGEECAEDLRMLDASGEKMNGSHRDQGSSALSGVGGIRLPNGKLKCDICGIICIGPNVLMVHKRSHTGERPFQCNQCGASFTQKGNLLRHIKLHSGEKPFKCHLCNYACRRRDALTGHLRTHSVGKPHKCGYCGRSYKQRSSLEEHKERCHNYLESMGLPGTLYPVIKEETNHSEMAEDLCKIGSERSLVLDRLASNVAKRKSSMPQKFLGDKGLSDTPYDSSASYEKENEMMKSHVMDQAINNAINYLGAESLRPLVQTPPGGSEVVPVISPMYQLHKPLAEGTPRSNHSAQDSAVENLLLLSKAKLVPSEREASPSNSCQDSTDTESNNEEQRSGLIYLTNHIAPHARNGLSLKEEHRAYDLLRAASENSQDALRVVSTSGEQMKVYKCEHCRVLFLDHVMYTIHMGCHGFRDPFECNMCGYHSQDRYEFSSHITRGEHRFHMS
UniProt Q9Y6M1: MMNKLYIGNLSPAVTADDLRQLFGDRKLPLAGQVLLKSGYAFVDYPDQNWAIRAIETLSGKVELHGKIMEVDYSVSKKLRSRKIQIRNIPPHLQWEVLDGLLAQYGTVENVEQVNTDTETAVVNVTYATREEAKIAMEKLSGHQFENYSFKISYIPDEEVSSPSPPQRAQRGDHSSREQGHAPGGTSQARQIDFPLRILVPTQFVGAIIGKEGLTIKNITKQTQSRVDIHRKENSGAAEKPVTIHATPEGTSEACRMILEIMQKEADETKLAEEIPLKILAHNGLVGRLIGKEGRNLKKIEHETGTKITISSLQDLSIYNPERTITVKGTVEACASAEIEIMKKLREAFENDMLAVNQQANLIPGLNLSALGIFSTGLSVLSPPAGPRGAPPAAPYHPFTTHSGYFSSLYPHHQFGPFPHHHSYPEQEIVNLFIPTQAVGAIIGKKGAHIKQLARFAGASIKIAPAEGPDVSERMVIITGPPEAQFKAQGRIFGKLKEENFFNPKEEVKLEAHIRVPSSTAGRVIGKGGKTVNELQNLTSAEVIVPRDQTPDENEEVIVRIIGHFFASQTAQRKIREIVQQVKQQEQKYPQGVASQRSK
UniProt Q13123, whole entry, looked up: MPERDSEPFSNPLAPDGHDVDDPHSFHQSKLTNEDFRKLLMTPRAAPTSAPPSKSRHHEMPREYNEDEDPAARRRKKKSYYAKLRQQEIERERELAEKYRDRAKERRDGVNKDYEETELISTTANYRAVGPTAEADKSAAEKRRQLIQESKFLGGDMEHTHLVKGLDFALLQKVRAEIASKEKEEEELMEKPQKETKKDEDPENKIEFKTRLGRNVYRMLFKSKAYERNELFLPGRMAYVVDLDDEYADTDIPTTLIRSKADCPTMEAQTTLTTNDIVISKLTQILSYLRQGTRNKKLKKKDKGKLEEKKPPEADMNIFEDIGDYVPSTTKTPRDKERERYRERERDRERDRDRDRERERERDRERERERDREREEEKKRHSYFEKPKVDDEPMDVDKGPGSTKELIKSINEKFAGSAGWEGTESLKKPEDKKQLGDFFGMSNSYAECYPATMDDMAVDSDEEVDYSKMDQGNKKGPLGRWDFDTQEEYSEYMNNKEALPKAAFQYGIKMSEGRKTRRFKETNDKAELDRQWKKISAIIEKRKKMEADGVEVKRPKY
UniProt C9J406: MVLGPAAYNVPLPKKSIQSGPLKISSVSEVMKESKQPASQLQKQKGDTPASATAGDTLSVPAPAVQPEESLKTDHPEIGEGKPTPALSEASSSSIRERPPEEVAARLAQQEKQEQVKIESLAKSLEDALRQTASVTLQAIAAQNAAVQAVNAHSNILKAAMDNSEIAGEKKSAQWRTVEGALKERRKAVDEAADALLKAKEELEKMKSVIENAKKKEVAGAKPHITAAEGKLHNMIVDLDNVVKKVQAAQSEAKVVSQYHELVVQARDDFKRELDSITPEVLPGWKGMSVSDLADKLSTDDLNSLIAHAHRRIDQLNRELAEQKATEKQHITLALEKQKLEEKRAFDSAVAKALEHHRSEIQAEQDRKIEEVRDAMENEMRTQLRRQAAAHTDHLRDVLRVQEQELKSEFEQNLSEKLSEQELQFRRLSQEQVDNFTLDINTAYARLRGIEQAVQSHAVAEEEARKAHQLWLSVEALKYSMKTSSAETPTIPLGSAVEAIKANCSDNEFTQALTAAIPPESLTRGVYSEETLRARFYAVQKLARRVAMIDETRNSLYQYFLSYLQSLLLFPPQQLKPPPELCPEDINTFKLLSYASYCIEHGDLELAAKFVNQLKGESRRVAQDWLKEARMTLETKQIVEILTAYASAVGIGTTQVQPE
UniProt P13598: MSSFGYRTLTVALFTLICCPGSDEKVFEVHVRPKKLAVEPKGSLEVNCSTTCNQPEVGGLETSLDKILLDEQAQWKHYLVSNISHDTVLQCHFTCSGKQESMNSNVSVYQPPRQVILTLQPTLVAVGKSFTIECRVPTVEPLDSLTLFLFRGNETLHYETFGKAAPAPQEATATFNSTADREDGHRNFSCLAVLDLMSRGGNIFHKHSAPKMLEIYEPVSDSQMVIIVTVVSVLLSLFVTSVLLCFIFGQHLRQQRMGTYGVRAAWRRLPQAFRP
UniProt Q14116, whole entry, looked up: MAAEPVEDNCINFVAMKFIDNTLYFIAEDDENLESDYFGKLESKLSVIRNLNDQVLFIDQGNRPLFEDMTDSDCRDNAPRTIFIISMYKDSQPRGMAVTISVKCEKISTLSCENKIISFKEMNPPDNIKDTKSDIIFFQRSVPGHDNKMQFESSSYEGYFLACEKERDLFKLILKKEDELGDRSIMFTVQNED
UniProt P38646: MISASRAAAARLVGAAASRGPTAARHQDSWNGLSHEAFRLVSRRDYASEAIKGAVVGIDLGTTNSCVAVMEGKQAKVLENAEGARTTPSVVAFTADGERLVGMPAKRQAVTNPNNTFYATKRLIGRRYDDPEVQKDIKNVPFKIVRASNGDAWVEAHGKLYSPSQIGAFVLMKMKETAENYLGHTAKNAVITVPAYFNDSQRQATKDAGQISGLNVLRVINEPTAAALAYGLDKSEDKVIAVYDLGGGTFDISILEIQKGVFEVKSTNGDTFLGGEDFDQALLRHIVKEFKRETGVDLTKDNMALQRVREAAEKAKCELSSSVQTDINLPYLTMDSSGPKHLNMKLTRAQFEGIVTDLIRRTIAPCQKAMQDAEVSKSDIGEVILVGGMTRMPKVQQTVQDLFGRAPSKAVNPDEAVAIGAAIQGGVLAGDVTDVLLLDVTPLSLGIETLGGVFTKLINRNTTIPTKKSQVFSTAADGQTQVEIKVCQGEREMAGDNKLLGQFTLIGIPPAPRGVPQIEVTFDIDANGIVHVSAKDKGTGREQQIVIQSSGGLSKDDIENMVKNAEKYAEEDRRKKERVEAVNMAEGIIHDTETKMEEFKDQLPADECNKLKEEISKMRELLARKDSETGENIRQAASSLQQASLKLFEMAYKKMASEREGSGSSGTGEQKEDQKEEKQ
UniProt P15260: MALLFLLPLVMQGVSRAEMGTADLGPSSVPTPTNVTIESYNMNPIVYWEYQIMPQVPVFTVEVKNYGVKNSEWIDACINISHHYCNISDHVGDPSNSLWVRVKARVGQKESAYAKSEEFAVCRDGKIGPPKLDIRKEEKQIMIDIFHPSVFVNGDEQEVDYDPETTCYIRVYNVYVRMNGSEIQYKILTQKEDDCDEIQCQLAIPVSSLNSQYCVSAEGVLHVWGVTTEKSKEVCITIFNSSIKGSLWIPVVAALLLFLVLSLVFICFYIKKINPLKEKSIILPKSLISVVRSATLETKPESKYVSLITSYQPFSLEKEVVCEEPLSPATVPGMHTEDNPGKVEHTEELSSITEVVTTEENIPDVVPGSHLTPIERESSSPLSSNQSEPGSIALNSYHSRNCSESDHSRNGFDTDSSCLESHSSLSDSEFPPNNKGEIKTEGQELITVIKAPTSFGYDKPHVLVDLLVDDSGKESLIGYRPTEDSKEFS
UniProt P48735: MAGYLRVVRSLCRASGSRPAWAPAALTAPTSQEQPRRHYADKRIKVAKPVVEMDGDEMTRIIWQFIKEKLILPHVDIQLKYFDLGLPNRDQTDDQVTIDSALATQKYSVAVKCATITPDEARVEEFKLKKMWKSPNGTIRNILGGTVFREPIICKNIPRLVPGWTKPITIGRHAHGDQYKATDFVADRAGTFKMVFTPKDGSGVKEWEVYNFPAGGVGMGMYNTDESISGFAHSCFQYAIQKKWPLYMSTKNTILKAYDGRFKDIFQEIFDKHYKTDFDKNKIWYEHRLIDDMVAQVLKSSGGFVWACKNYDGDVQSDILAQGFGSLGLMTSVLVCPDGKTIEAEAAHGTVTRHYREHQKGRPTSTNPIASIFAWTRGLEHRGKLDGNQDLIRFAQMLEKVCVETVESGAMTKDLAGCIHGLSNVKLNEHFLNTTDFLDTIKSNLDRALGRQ

Assays:
Assay in all cases: log2 fold change, soluble protein after heating vs DMSO (PISA); higher = thermal stabilisation; K562 lysate, 10 uM; active = over 0.2 and 3.5 SD of the protein, either way, in both replicates (recomputed)
[1] = compound: C=CC(=O)N1CCC[C@@H](n2nc(-c3ccc(Oc4ccccc4)cc3)c3c(N)ncnc32)C1 [ibrutinib]
In short: (§1)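 A 30 min treatment with 10 μM compound was applied to crude K562 extract at 1 mg/mL protein in PBS pH 7.4 with 1 mM MgCl2. Heating for 3 min spanned 48°C-58°C, after which aliquots were pooled, adjusted to 0.5% NP-40 at 4°C and spun at 21,000xg for 90 min. TMTpro 16plex LC-MS/MS of the supernatant, with channel sums equalised, gave values recorded as log-two fold change in thermal stability against solvent controls, from duplicates.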

[2] = compound: CC(=O)c1cnc2ccc(-c3cc(Cl)c(O)c(Cl)c3)nc2c1N[C@H]1CC[C@H](CN(C)C)CC1
In short: as §1

[3] = compound: CC(C)(C)Cn1c(N)nc2ccc(-c3[nH]c(C(C)(C)C)nc3-c3ccc(F)cc3)nc21 [ralimetinib]
In short: as §1

[4] = compound: CC(C)(O)CC(=O)NCCn1ccc2ncnc(Nc3ccc(Oc4cccc(C(F)(F)F)c4)c(Cl)c3)c21
In short: as §1

[5] = compound: CC(C)C1=C2N=C(C=C(N2N=C1)NCC3=CC=CC=C3)NCCCCCCN
In short: as §1

[6] = compound: CC1=C(C(CC(=O)N1)C2=CC=C(C=C2)C(F)(F)F)C(=O)NC3=C(C=C4C(=C3)C=NN4)F
In short: as §1

[7] = compound: CC1=C(C2=C(C=C1)C(=O)C3=CC=CC=C3N2CCCN)C
In short: as §1

[8] = compound: CC1=C(C=C(C=C1)NC(=O)C2=CC(=CC=C2)C(C)(C)C#N)NC3=CC4=C(C=C3)N=CN(C4=O)C
In short: as §1

[9] = compound: CC1=C(C=C(C=C1)NC(=O)C2=CC(=CC=C2)N(C)C)NC(=O)C3=CC=C(C=C3)O
In short: as §1

[10] = compound: CC1=CC=C(C=C1)SC2=C3C=C(SC3=CN=C2)C(=O)N
In short: as §1

[11] = compound: CCCS(=O)(=O)Nc1ccc(F)c(C(=O)c2c[nH]c3ncc(-c4ccc(Cl)cc4)cc23)c1F [vemurafenib]
In short: as §1

[12] = compound: CCCS(=O)(=O)Nc1ccc(F)c(C(=O)c2c[nH]c3ncc(Cl)cc23)c1F
In short: as §1

[13] = compound: CCN(CCCOc1ccc2c(Nc3cc(CC(=O)Nc4cccc(F)c4)[nH]n3)ncnc2c1)CCOP(=O)(O)O [barasertib]
In short: as §1

[14] = compound: CC[C@@H]1C(=O)N(C)c2cnc(Nc3ccc(C(=O)NC4CCN(C)CC4)cc3OC)nc2N1C1CCCC1
In short: as §1

[15] = compound: CC[C@@H]1C(=O)N(C)c2cnc(Nc3ccc(C(=O)N[C@H]4CC[C@H](N5CCN(CC6CC6)CC5)CC4)cc3OC)nc2N1C(C)C [volasertib]
In short: as §1

[16] = compound: CCn1c(C(=O)N(C2CC2)C2CC2)cc2c3c(ncn3C)c(Nc3cc(C)n(C)n3)nc21
In short: as §1

[17] = compound: CCn1cc(-c2ccnc3[nH]c(-c4cccc(CN(C)C)c4)cc23)c(-c2ccc(NC(=O)N(C)C)cc2)n1
In short: as §1

[18] = compound: CN1CCC(CNc2ccc3ncc(-c4cccc(OC(F)(F)F)c4)n3n2)CC1
In short: as §1

[19] = compound: CN1CCN(CCOc2cc(OC3CCOCC3)c3c(Nc4c(Cl)ccc5c4OCO5)ncnc3c2)CC1 [saracatinib]
In short: as §1

[20] = compound: CN1CCN(c2nc(C3=C(c4c[nH]c5ccccc45)C(=O)NC3=O)c3ccccc3n2)CC1 [sotrastaurin]
In short: as §1

Row | Target | log2 fold change [1] | log2 fold change [2] | log2 fold change [3] | log2 fold change [4] | log2 fold change [5] | log2 fold change [6] | log2 fold change [7] | log2 fold change [8] | log2 fold change [9] | log2 fold change [10] | log2 fold change [11] | log2 fold change [12] | log2 fold change [13] | log2 fold change [14] | log2 fold change [15] | log2 fold change [16] | log2 fold change [17] | log2 fold change [18] | log2 fold change [19] | log2 fold change [20]
1 | INTS1 (UniProt Q8N201) | inactive: -0.103 | inactive: 0.177 | inactive: 0.053 | inactive: -0.007 | inactive: -0.052 | inactive: -0.052 | inactive: 0.038 | inactive: -0.032 | inactive: 0.035 | inactive: 0.026 | inactive: 0.042 | inactive: -0.096 | inactive: -0.01 | inactive: 0.044 | inactive: -0.033 | inactive: 0.007 | inactive: 0.06 | inactive: -0.041 | inactive: 0 | inactive: -0.002
2 | HSPA8 (UniProt P11142) | inactive: -0.02 | inactive: -0.002 | inactive: -0.015 | inactive: -0.003 | inactive: 0.001 | inactive: -0.022 | inactive: 0.005 | inactive: -0.013 | inactive: -0.002 | inactive: 0.009 | inactive: -0.024 | inactive: 0.003 | inactive: -0.035 | inactive: -0.031 | inactive: -0.003 | inactive: 0.002 | inactive: -0.005 | inactive: 0.014 | inactive: -0.001 | inactive: 0.004
3 | INTS12 (UniProt Q96CB8) | inactive: -0.099 | inactive: -0.035 | inactive: 0.1 | inactive: 0.052 | inactive: 0.009 | inactive: 0.043 | inactive: 0.074 | inactive: 0.003 | inactive: 0.045 | inactive: -0.038 | inactive: -0.017 | inactive: -0.03 | inactive: 0.02 | inactive: 0.041 | inactive: 0.026 | inactive: -0.007 | inactive: 0.097 | inactive: -0.096 | inactive: 0.011 | inactive: 0.059
4 | IFI30 (UniProt P13284) | inactive: 0.01 | inactive: -0.01 | inactive: -0.046 | inactive: -0.051 | inactive: -0.047 | inactive: 0.007 | inactive: 0.041 | inactive: 0.009 | inactive: -0.002 | inactive: -0.059 | inactive: -0.066 | inactive: -0.013 | inactive: 0.199 | inactive: 0.076 | inactive: 0.001 | inactive: -0.003 | inactive: -0.23 | inactive: 0.059 | inactive: -0.013 | inactive: 0.092
5 | INTS11 (UniProt Q5TA45) | inactive: 0.01 | inactive: -0.006 | inactive: -0.03 | inactive: 0.009 | inactive: -0.017 | inactive: -0.014 | inactive: -0.006 | inactive: -0.034 | inactive: 0.006 | inactive: 0.018 | inactive: -0.036 | inactive: -0.035 | inactive: 0.005 | inactive: 0.048 | inactive: -0.008 | inactive: 0.012 | inactive: -0.023 | inactive: -0.02 | inactive: 0.002 | inactive: -0.022
6 | IDH3A (UniProt P50213) | inactive: 0 | inactive: -0.004 | inactive: -0.003 | inactive: 0 | inactive: 0 | inactive: -0.017 | inactive: -0.013 | inactive: 0.009 | inactive: 0.005 | inactive: -0.006 | inactive: -0.003 | inactive: 0.013 | inactive: 0.019 | inactive: -0.028 | inactive: 0.009 | inactive: 0.012 | inactive: 0.074 | inactive: -0.035 | inactive: -0.015 | inactive: -0.016
7 | IKZF1 (UniProt Q13422) | inactive: 0.049 | inactive: -0.008 | inactive: -0.026 | inactive: -0.038 | inactive: 0.016 | inactive: 0.072 | inactive: -0.061 | inactive: 0.012 | inactive: 0.01 | inactive: -0.023 | inactive: 0.028 | inactive: 0.044 | inactive: 0.054 | inactive: 0.019 | inactive: -0.007 | inactive: -0.034 | inactive: 0.062 | inactive: -0.055 | inactive: 0.033 | inactive: -0.108
8 | IGF2BP2 (UniProt Q9Y6M1) | inactive: 0.035 | inactive: 0.007 | inactive: 0.056 | inactive: 0.035 | inactive: 0.007 | inactive: -0.008 | inactive: -0.036 | inactive: -0.075 | inactive: 0.006 | inactive: 0.056 | inactive: 0.05 | inactive: 0.026 | inactive: -0.005 | inactive: -0.1 | inactive: -0.049 | inactive: 0.02 | inactive: -0.066 | inactive: 0.036 | inactive: 0.014 | inactive: 0.026
9 | IK (UniProt Q13123) | inactive: -0.003 | inactive: 0.071 | inactive: -0.023 | inactive: -0.006 | inactive: 0.011 | inactive: -0.005 | inactive: -0.022 | inactive: 0.027 | inactive: -0.007 | inactive: 0.072 | inactive: 0.007 | inactive: -0.029 | inactive: -0.024 | inactive: 0.022 | inactive: -0.039 | inactive: 0.024 | inactive: -0.035 | inactive: -0.004 | inactive: -0.013 | inactive: -0.015
10 | IMMT (UniProt C9J406) | inactive: 0.119 | inactive: 0.046 | inactive: 0.126 | inactive: -0.14 | inactive: -0.096 | inactive: 0.099 | inactive: -0.03 | inactive: -0.002 | inactive: 0.012 | inactive: -0.015 | inactive: -0.018 | inactive: -0.036 | inactive: -0.105 | inactive: 0.098 | inactive: -0.015 | inactive: 0.018 | inactive: -0.464 | inactive: -0.037 | inactive: 0.074 | inactive: 0.02
11 | ICAM2 (UniProt P13598) | inactive: 0.058 | inactive: 0.043 | inactive: 0.001 | inactive: -0.019 | inactive: -0.016 | inactive: 0.005 | inactive: 0.012 | inactive: 0.023 | inactive: -0.028 | inactive: -0.028 | inactive: -0.036 | inactive: 0.016 | inactive: 0.018 | inactive: 0.03 | inactive: 0.015 | inactive: -0.017 | active: 0.426 | inactive: -0.031 | inactive: 0.004 | inactive: -0.035
12 | IL18 (UniProt Q14116) | inactive: 0.029 | inactive: -0.012 | inactive: 0.027 | inactive: -0.055 | inactive: 0.025 | inactive: -0.01 | inactive: 0.031 | inactive: -0.048 | inactive: -0.027 | inactive: -0.036 | inactive: -0.007 | inactive: 0.004 | inactive: 0.021 | inactive: 0.016 | inactive: 0.021 | inactive: 0.012 | inactive: -0.146 | inactive: 0.018 | inactive: 0.002 | inactive: 0.016
13 | HSPA9 (UniProt P38646) | inactive: -0.019 | inactive: -0.007 | inactive: -0.016 | inactive: 0.013 | inactive: -0.006 | inactive: -0.021 | inactive: 0.016 | inactive: -0.023 | inactive: -0.005 | inactive: -0.02 | inactive: -0.003 | inactive: -0.015 | inactive: -0.032 | inactive: 0.024 | inactive: 0.004 | inactive: 0.008 | inactive: 0.021 | inactive: -0.014 | inactive: -0.001 | inactive: 0
14 | IFNGR1 (UniProt P15260) | inactive: -0.033 | inactive: -0.12 | inactive: -0.018 | inactive: -0.256 | inactive: -0.014 | inactive: 0.162 | inactive: -0.077 | inactive: 0.017 | inactive: 0.073 | inactive: -0.213 | inactive: 0.182 | inactive: -0.07 | inactive: -0.051 | inactive: 0.234 | inactive: 0.08 | inactive: -0.153 | active: -0.641 | inactive: 0.331 | inactive: 0.032 | inactive: -0.018
15 | ILF3 isoform 7 (UniProt Q12906) | inactive: -0.004 | inactive: -0.037 | inactive: -0.002 | inactive: -0.017 | inactive: -0.002 | inactive: -0.018 | inactive: -0.066 | inactive: -0.006 | inactive: 0.013 | inactive: 0.02 | inactive: -0.002 | inactive: 0 | inactive: -0.029 | inactive: 0.005 | inactive: 0.009 | inactive: 0.021 | inactive: -0.043 | inactive: 0.031 | inactive: 0.011 | inactive: -0.001
16 | IDH2 (UniProt P48735) | inactive: -0.012 | inactive: -0.003 | inactive: 0.004 | inactive: -0.002 | inactive: 0.027 | inactive: -0.033 | inactive: -0.122 | inactive: -0.011 | inactive: 0.042 | inactive: 0.04 | inactive: 0.001 | inactive: -0.003 | inactive: -0.036 | inactive: -0.083 | inactive: -0.09 | inactive: 0.025 | inactive: 0.097 | inactive: -0.168 | inactive: -0.096 | inactive: 0.046

Taken from above.
log2 fold change [15] with ILF3 isoform 7 (UniProt Q12906) is entered as inactive: 0.009
log2 fold change [7] with ICAM2 (UniProt P13598) is entered as inactive: 0.012
